In the supplement of paper PMC4604168 (melanoma cell lines):
This is one part of the list. Many values rest on one well or one pass, so single values are uncertain.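 Cells were imaged in 1,536-well plates, and nuclei stained with an antibody against cleaved PARP were counted against all DNA-stained nuclei to give the apoptosis fraction. Screening doses were chosen to leave most cells alive, and resting and induced cleaved-PARP levels differ strongly between cell lines.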

Tests used:
Experiment in all cases: cleaved PARP positive nuclei fraction relative to DMSO control; melanoma cells; higher = more apoptosis
Settings in all cases: library dose: low library concentration; 72 h
[1] = tested on: COLO792
[2] = tested on: COLO800
[3] = tested on: COLO829
[4] = tested on: G361
[5] = tested on: IPC-298
[6] = tested on: IST-MEL1
[7] = tested on: LB2518-MEL
[8] = tested on: LOXIMVI
[9] = tested on: MEL-HO
[10] = tested on: MZ2-MEL
[11] = tested on: MeWo
[12] = tested on: RPMI7951
[13] = tested on: RVH-421
[14] = tested on: SkMel28
[15] = tested on: SkMel2
[16] = tested on: SkMel30
[17] = tested on: SkMel5
[18] = tested on: UACC257
[19] = tested on: UACC62
[20] = tested on: CBRC034 (line from a melanoma biopsy)

| Compound | cleaved PARP positive nuclei fraction [1] | cleaved PARP positive nuclei fraction [2] | cleaved PARP positive nuclei fraction [3] | cleaved PARP positive nuclei fraction [4] | cleaved PARP positive nuclei fraction [5] | cleaved PARP positive nuclei fraction [6] | cleaved PARP positive nuclei fraction [7] | cleaved PARP positive nuclei fraction [8] | cleaved PARP positive nuclei fraction [9] | cleaved PARP positive nuclei fraction [10] | cleaved PARP positive nuclei fraction [11] | cleaved PARP positive nuclei fraction [12] | cleaved PARP positive nuclei fraction [13] | cleaved PARP positive nuclei fraction [14] | cleaved PARP positive nuclei fraction [15] | cleaved PARP positive nuclei fraction [16] | cleaved PARP positive nuclei fraction [17] | cleaved PARP positive nuclei fraction [18] | cleaved PARP positive nuclei fraction [19] | cleaved PARP positive nuclei fraction [20] |
| --- | --- | --- | --- | --- | --- | --- | --- | --- | --- | --- | --- | --- | --- | --- | --- | --- | --- | --- | --- | --- |
| N#CC[C@H](C1CCCC1)n1cc(-c2ncnc3[nH]ccc23)cn1 [ruxolitinib] + Cc1ccc(NC(=O)c2cccc(N(C)C)c2)cc1NC(=O)c1ccc(O)cc1 [ZM336372] (first compound 1 µM, partner dose 2 µM) | 69.9% | 52.3% | 74.9% | 66.1% | 105% | 109% | 197% | 54.3% | 65% | 155% | 109% | 49.9% | 188% | 207% | 73.6% | 63.6% | 233% | 35.9% | 195% |  |
| COc1cc([C@@H]2c3cc4c(cc3[C@@H](O[C@@H]3O[C@@H]5CO[C@@H](C)O[C@H]5[C@H](O)[C@H]3O)[C@H]3COC(=O)[C@H]23)OCO4)cc(OC)c1O [etoposide] + Cc1cn(-c2cc(NC(=O)c3ccc(C)c(Nc4nccc(-c5cccnc5)n4)c3)cc(C(F)(F)F)c2)cn1 [nilotinib] (first compound 0.02 µM, partner dose 0.2 µM) | 191% | 204% | 122% | 129% | 58.6% | 95.4% |  | 116% | 47.9% |  | 90.1% |  | 221% | 123% |  | 67.9% |  |  | 70.9% | 32.2% |
| O=c1[nH]nc(Sc2ncc([N+](=O)[O-])s2)n1-c1ccc2c(c1)OCCO2 + OCCn1cc(-c2cnc3nnn(Cc4ccc5ncccc5c4)c3n2)cn1 [PF04217903] (first compound 0.2 µM, partner dose 1 µM) | 144% | 55.5% | 90% | 131% | 181% | 102% | 47.1% | 109% | 86.1% | 112% | 103% | 104% | 90.2% | 81.4% | 84.1% | 54.4% | 88.5% | 162% | 200% |  |
| N#CC[C@H](C1CCCC1)n1cc(-c2ncnc3[nH]ccc23)cn1 [ruxolitinib] + NCC(=O)Nc1ccc(-n2nc(C(F)(F)F)cc2-c2ccc3c(ccc4ccccc43)c2)cc1 [OSU03012] (first compound 1 µM, partner dose 1 µM) | 73.7% | 36.5% | 110% | 122% | 243% | 1740% | 87.5% | 31.7% | 106% | 194% | 101% | 27.3% | 104% | 167% | 353% | 133% | 111% | 90.9% | 101% |  |
| Cc1cc(Nc2cc(N3CCN(C)CC3)nc(Sc3ccc(NC(=O)C4CC4)cc3)n2)n[nH]1 [Tozasertib] + Cc1ccc(NC(=O)c2cccc(N(C)C)c2)cc1NC(=O)c1ccc(O)cc1 [ZM336372] (first compound 0.006 µM, partner dose 2 µM) | 76.3% | 182% | 73.5% | 52.4% | 57% | 204% | 57.7% | 78.2% | 278% | 35% | 62% | 307% | 198% | 28.3% | 52.4% | 64.1% | 167% | 85.2% | 131% |  |
| O=c1[nH]nc(Sc2ncc([N+](=O)[O-])s2)n1-c1ccc2c(c1)OCCO2 + C[C@@H]1CCN(C(=O)CC#N)C[C@@H]1N(C)c1ncnc2[nH]ccc12 [CP690550] (first compound 0.2 µM, partner dose 1 µM) | 61% | 67.4% | 41.2% | 75.1% | 172% | 51% | 148% | 128% | 68.1% | 59.7% | 68.8% | 150% | 85.2% | 41.9% | 102% | 119% | 149% | 111% | 48.4% |  |
| Cc1cc(Nc2cc(N3CCN(C)CC3)nc(Sc3ccc(NC(=O)C4CC4)cc3)n2)n[nH]1 [Tozasertib] + CO[C@@H]1[C@H](N(C)C(=O)c2ccccc2)C[C@H]2O[C@]1(C)n1c3ccccc3c3c4c(c5c6ccccc6n2c5c31)C(=O)NC4 [Midostaurin] (first compound 0.006 µM, partner dose 0.08 µM) | 178% | 91.9% | 122% | 164% | 73.5% | 100% | 92.5% | 124% | 67.5% | 105% | 267% | 185% | 192% | 105% | 83.1% | 121% | 80.4% | 211% | 74.8% |  |
| O=C(/C=C/c1cccnc1)NCCCCC1CCN(C(=O)c2ccccc2)CC1 + O=C(Nc1cccc(Cl)c1)Nc1ncc(CCNc2ncnc3ccsc23)s1 [SNS314] (first compound 0.01 µM, partner dose 0.0008 µM) | 249% | 247% | 198% | 2600% | 418% | 144% | 141% | 33.6% | 627% | 369% | 152% | 135% | 327% | 146% | 291% | 72.4% | 78.1% | 75.2% | 71.6% |  |
